# This is one part of the list.
# B1: PX9961K-bvu-480-28-480 (Bacteroides vulgatus) (protein)
# chain: NKIPTTMAFRTVTDVDNAVNGLYDLMSGSGYYGAAMFAYGDMKGDDMQSSEESGVCNTCYMFNHRPNSLNAGSLWGRPFYILREAWNILNAIAEGKIESGDEKKLNALKGETMAVIALCQFDLTRCFGYPYTKDKGASLGAPLIDHLVGTYENPPRSTVAQAYDFIIETLEEAVTLMSEEKNNGRMNKYAARALLARIYLYHDDNRKAFDLADQLIKDADTSGSYALYPHEKYVAAWSVEAKFGSESFFEIANSVDDTPGRDSWGYLLNWYGYQKGFVTQKYAEQMLADPGDVRGHLLEENKYAGKTVWWLYKLRGTDLKTAPLECNNVVLRLSEVYLIAAEAGCKLGGDAAVQGLGYLNEIVKRGNPDNEVTMADYTLDRVLDERSKELVGEGHRFFDLLRNGKTIVRKGGYHLPSVDEEVDWDFYKCVLPIPEDQFIFSPEMEQNPGYPKN
# How the values were obtained:
# Experiment in all cases: glycan array binding signal (z-score within array); higher = stronger binding
# Details in all cases: glycan notation: IUPAC condensed, linker removed
# [1] = biological target: Neu5Ac(a2-3)Gal(b1-3)GalNAc
# Outline: (§1)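 From the Consortium for Functional Glycomics database, 3228 arrays were curated, keeping only those whose protein sequence was available. Binding is given as a within-array Z-score averaged across arrays sharing a protein sequence and across linkers. Negative Z-scores can be read as non-binding.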
# [2] = biological target: Neu5Ac(a2-3)Gal(b1-3)GalNAc(b1-3)Gal(a1-4)Gal(b1-4)Glc
# Outline: as §1
# [3] = biological target: Neu5Ac(a2-3)Gal(b1-3)GalNAc(b1-4)[Neu5Ac(a2-3)]Gal(b1-4)Glc
# Outline: as §1
# [4] = biological target: Neu5Ac(a2-3)Gal(b1-3)GalNAc(b1-4)[Neu5Ac(a2-8)Neu5Ac(a2-3)]Gal(b1-4)Glc
# Outline: as §1
# [5] = biological target: Neu5Ac(a2-3)Gal(b1-3)GalNAc6S
# Outline: as §1
# [6] = biological target: Neu5Ac(a2-3)Gal(b1-3)GlcNAc
# Outline: as §1
# [7] = biological target: Neu5Ac(a2-3)Gal(b1-3)GlcNAc(b1-2)Man
# Outline: as §1
# [8] = biological target: Neu5Ac(a2-3)Gal(b1-3)GlcNAc(b1-2)Man(a1-3)[GlcNAc(b1-4)][Neu5Ac(a2-3)Gal(b1-3)GlcNAc(b1-2)Man(a1-6)]Man(b1-4)GlcNAc(b1-4)GlcNAc
# Outline: as §1
# [9] = biological target: Neu5Ac(a2-3)Gal(b1-3)GlcNAc(b1-2)Man(a1-3)[Neu5Ac(a2-3)Gal(b1-3)GlcNAc(b1-2)Man(a1-6)]Man(b1-4)GlcNAc(b1-4)GlcNAc
# Outline: as §1
# [10] = biological target: Neu5Ac(a2-3)Gal(b1-3)GlcNAc(b1-3)Gal(b1-3)GlcNAc
# Outline: as §1
# [11] = biological target: Neu5Ac(a2-3)Gal(b1-3)GlcNAc(b1-3)Gal(b1-4)GlcNAc
# Outline: as §1
# [12] = biological target: Neu5Ac(a2-3)Gal(b1-3)GlcNAc(b1-3)GalNAc
# Outline: as §1
# [13] = biological target: Neu5Ac(a2-3)Gal(b1-3)GlcNAc(b1-4)Gal(b1-4)Glc
# Outline: as §1
# [14] = biological target: Neu5Ac(a2-3)Gal(b1-3)GlcNAc(b1-6)GalNAc
# Outline: as §1
# [15] = biological target: Neu5Ac(a2-3)Gal(b1-3)GlcNAc6S
# Outline: as §1
# [16] = biological target: Neu5Ac(a2-3)Gal(b1-3)[Fuc(a1-4)]GlcNAc
# Outline: as §1
# [17] = biological target: Neu5Ac(a2-3)Gal(b1-3)[Fuc(a1-4)]GlcNAc(b1-3)Gal(b1-3)[Fuc(a1-4)]GlcNAc
# Outline: as §1
# [18] = biological target: Neu5Ac(a2-3)Gal(b1-3)[Fuc(a1-4)]GlcNAc(b1-3)Gal(b1-4)[Fuc(a1-3)]GlcNAc
# Outline: as §1
# [19] = biological target: Neu5Ac(a2-3)Gal(b1-3)[GlcNAc(b1-6)]GalNAc
# Outline: as §1
# [20] = biological target: Neu5Ac(a2-3)Gal(b1-3)[Neu5Ac(a2-6)]GalNAc
# Outline: as §1
# [21] = biological target: Neu5Ac(a2-3)Gal(b1-3)[Neu5Ac(a2-6)]GlcNAc(b1-3)[Fuc(a1-3)[Gal(b1-4)]GlcNAc(b1-6)]Gal(b1-4)Glc
# Outline: as §1
# [22] = biological target: Neu5Ac(a2-3)Gal(b1-3)]Neu5Ac(a2-3)Gal(b1-4)]GlcNAc
# Outline: as §1
# [23] = biological target: Neu5Ac(a2-3)Gal(b1-4)Glc
# Outline: as §1
# [24] = biological target: Neu5Ac(a2-3)Gal(b1-4)GlcNAc
# Outline: as §1
# [25] = biological target: Neu5Ac(a2-3)Gal(b1-4)GlcNAc(b1-2)Man
# Outline: as §1
# [26] = biological target: Neu5Ac(a2-3)Gal(b1-4)GlcNAc(b1-2)Man(a1-3)[GlcNAc(b1-4)][Neu5Ac(a2-3)Gal(b1-4)GlcNAc(b1-2)Man(a1-6)]Man(b1-4)GlcNAc(b1-4)GlcNAc
# Outline: as §1
# [27] = biological target: Neu5Ac(a2-3)Gal(b1-4)GlcNAc(b1-2)Man(a1-3)[Neu5Ac(a2-3)Gal(b1-4)GlcNAc(b1-2)Man(a1-6)]Man(b1-4)GlcNAc(b1-4)GlcNAc
# Outline: as §1
# [28] = biological target: Neu5Ac(a2-3)Gal(b1-4)GlcNAc(b1-2)Man(a1-3)[Neu5Ac(a2-3)Gal(b1-4)GlcNAc(b1-2)Man(a1-6)]Man(b1-4)GlcNAc(b1-4)[Fuc(a1-6)]GlcNAc
# Outline: as §1
# [29] = biological target: Neu5Ac(a2-3)Gal(b1-4)GlcNAc(b1-2)Man(a1-3)[Neu5Ac(a2-6)Gal(b1-4)GlcNAc(b1-2)Man(a1-6)]Man(b1-4)GlcNAc(b1-4)GlcNAc
# Outline: as §1
# [30] = biological target: Neu5Ac(a2-3)Gal(b1-4)GlcNAc(b1-2)[Neu5Ac(a2-3)Gal(b1-4)GlcNAc(b1-4)]Man(a1-3)[GlcNAc(b1-4)][Neu5Ac(a2-3)Gal(b1-4)GlcNAc(b1-2)[Neu5Ac(a2-3)Gal(b1-4)GlcNAc(b1-6)]Man(a1-6)]Man(b1-4)GlcNAc(b1-4)GlcNAc
# Outline: as §1
# [31] = biological target: Neu5Ac(a2-3)Gal(b1-4)GlcNAc(b1-2)[Neu5Ac(a2-3)Gal(b1-4)GlcNAc(b1-4)]Man(a1-3)[GlcNAc(b1-4)][Neu5Ac(a2-3)Gal(b1-4)GlcNAc(b1-4)Man(a1-6)]Man(b1-4)GlcNAc(b1-4)GlcNAc
# Outline: as §1
# [32] = biological target: Neu5Ac(a2-3)Gal(b1-4)GlcNAc(b1-2)[Neu5Ac(a2-3)Gal(b1-4)GlcNAc(b1-6)]Man(a1-6)[Neu5Ac(a2-3)Gal(b1-4)GlcNAc(b1-2)Man(a1-3)]Man(b1-4)GlcNAc(b1-4)GlcNAc
# Outline: as §1
# [33] = biological target: Neu5Ac(a2-3)Gal(b1-4)GlcNAc(b1-2)[Neu5Ac(a2-3)Gal(b1-4)GlcNAc(b1-6)]Man(a1-6)[Neu5Ac(a2-3)Gal(b1-4)GlcNAc(b1-2)Man(a1-3)][GlcNAc(b1-4)]Man(b1-4)GlcNAc(b1-4)GlcNAc
# Outline: as §1
# [34] = biological target: Neu5Ac(a2-3)Gal(b1-4)GlcNAc(b1-3)Gal
# Outline: as §1
# [35] = biological target: Neu5Ac(a2-3)Gal(b1-4)GlcNAc(b1-3)Gal(b1-3)GlcNAc
# Outline: as §1
# [36] = biological target: Neu5Ac(a2-3)Gal(b1-4)GlcNAc(b1-3)Gal(b1-4)GlcNAc
# Outline: as §1
# [37] = biological target: Neu5Ac(a2-3)Gal(b1-4)GlcNAc(b1-3)Gal(b1-4)GlcNAc(b1-2)Man(a1-3)[Neu5Ac(a2-3)Gal(b1-4)GlcNAc(b1-3)Gal(b1-4)GlcNAc(b1-2)Man(a1-6)]Man(b1-4)GlcNAc(b1-4)GlcNAc
# Outline: as §1
# [38] = biological target: Neu5Ac(a2-3)Gal(b1-4)GlcNAc(b1-3)Gal(b1-4)GlcNAc(b1-3)Gal(b1-4)GlcNAc
# Outline: as §1
# [39] = biological target: Neu5Ac(a2-3)Gal(b1-4)GlcNAc(b1-3)Gal(b1-4)GlcNAc(b1-3)Gal(b1-4)GlcNAc(b1-2)Man(a1-3)[Neu5Ac(a2-3)Gal(b1-4)GlcNAc(b1-3)Gal(b1-4)GlcNAc(b1-3)Gal(b1-4)GlcNAc(b1-2)Man(a1-6)]GalNAc
# Outline: as §1
# [40] = biological target: Neu5Ac(a2-3)Gal(b1-4)GlcNAc(b1-3)Gal(b1-4)GlcNAc(b1-3)GalNAc
# Outline: as §1
# [41] = biological target: Neu5Ac(a2-3)Gal(b1-4)GlcNAc(b1-3)Gal(b1-4)GlcNAc(b1-3)[Neu5Ac(a2-3)Gal(b1-4)GlcNAc(b1-3)Gal(b1-4)GlcNAc(b1-6)]GalNAc
# Outline: as §1
# [42] = biological target: Neu5Ac(a2-3)Gal(b1-4)GlcNAc(b1-3)Gal(b1-4)GlcNAc(b1-6)[Gal(b1-3)]GalNAc
# Outline: as §1
# [43] = biological target: Neu5Ac(a2-3)Gal(b1-4)GlcNAc(b1-3)Gal(b1-4)[Fuc(a1-3)]GlcNAc
# Outline: as §1
# [44] = biological target: Neu5Ac(a2-3)Gal(b1-4)GlcNAc(b1-3)GalNAc
# Outline: as §1
# [45] = biological target: Neu5Ac(a2-3)Gal(b1-4)GlcNAc(b1-3)[Neu5Ac(a2-3)Gal(b1-4)GlcNAc(b1-6)]GalNAc
# Outline: as §1
binder,measurement,setting,value
B1,glycan array binding signal (z-score),[1],-0.276
same,glycan array binding signal (z-score),[2],0.822
same,glycan array binding signal (z-score),[3],-0.049
same,glycan array binding signal (z-score),[4],-0.425
same,glycan array binding signal (z-score),[5],-0.533
same,glycan array binding signal (z-score),[6],0.2
same,glycan array binding signal (z-score),[7],0.268
same,glycan array binding signal (z-score),[8],0.06
same,glycan array binding signal (z-score),[9],-0.322
same,glycan array binding signal (z-score),[10],-0.752
same,glycan array binding signal (z-score),[11],0.011
same,glycan array binding signal (z-score),[12],-0.742
same,glycan array binding signal (z-score),[13],-0.342
same,glycan array binding signal (z-score),[14],-0.237
same,glycan array binding signal (z-score),[15],0.976
same,glycan array binding signal (z-score),[16],0.901
same,glycan array binding signal (z-score),[17],0.481
same,glycan array binding signal (z-score),[18],0.153
same,glycan array binding signal (z-score),[19],-1.23
same,glycan array binding signal (z-score),[20],0.069
same,glycan array binding signal (z-score),[21],0.381
same,glycan array binding signal (z-score),[22],-0.858
same,glycan array binding signal (z-score),[23],0.325
same,glycan array binding signal (z-score),[24],-0.351
same,glycan array binding signal (z-score),[25],-0.302
same,glycan array binding signal (z-score),[26],-0.307
same,glycan array binding signal (z-score),[27],0.248
same,glycan array binding signal (z-score),[28],-0.197
same,glycan array binding signal (z-score),[29],-1.02
same,glycan array binding signal (z-score),[30],-0.976
same,glycan array binding signal (z-score),[31],-0.761
same,glycan array binding signal (z-score),[32],-0.187
same,glycan array binding signal (z-score),[33],1.59
same,glycan array binding signal (z-score),[34],0.436
same,glycan array binding signal (z-score),[35],0.56
same,glycan array binding signal (z-score),[36],-0.369
same,glycan array binding signal (z-score),[37],-0.016
same,glycan array binding signal (z-score),[38],0.057
same,glycan array binding signal (z-score),[39],0.671
same,glycan array binding signal (z-score),[40],-0.68
same,glycan array binding signal (z-score),[41],0.587
same,glycan array binding signal (z-score),[42],-0.074
same,glycan array binding signal (z-score),[43],-0.06
same,glycan array binding signal (z-score),[44],0.147
same,glycan array binding signal (z-score),[45],-0.334

# Retrieved one by one from above:
binder,measurement,setting,value
B1,glycan array binding signal (z-score),[19],-1.23
same,glycan array binding signal (z-score),[23],0.325
same,glycan array binding signal (z-score),[21],0.381
